Laboratory results taken from article PMC10602909.
These are yes or no findings as the source states them, for the method shown. Binding seen in cells or lysates may run through a third protein. Some entries that bind do so weakly or less than the wild type.

Protein sequences, listed by entry. Tags and fused reporters are not part of them. Residues count along the entry.
UniProt Q5JVG8, residues 1-75: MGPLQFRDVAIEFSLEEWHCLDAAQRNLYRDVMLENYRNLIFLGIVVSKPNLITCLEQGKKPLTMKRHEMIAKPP
UniProt Q13263: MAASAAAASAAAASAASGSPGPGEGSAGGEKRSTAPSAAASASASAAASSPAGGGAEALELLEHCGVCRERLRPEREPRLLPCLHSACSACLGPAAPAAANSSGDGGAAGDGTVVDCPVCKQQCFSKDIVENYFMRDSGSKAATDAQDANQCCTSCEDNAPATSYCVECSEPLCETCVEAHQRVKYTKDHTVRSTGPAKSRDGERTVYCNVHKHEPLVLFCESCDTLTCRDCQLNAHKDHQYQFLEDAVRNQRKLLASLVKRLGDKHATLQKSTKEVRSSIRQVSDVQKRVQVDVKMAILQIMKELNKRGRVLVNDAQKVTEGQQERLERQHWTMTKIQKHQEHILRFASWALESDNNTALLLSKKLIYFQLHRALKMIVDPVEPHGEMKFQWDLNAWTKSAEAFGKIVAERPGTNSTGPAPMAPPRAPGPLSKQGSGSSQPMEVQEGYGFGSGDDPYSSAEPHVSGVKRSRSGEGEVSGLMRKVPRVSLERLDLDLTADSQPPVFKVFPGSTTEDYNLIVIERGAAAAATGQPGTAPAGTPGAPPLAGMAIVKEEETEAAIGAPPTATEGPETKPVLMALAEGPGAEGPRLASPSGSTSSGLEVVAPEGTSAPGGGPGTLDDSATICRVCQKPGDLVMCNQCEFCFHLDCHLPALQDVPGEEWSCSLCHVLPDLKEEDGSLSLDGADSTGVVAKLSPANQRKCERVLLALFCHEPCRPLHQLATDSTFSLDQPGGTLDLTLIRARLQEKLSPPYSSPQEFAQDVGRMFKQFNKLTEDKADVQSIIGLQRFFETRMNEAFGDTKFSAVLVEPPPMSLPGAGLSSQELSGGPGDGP

Target: FLAG-tagged ZNF506-KRAB domain (amino acids 1-75) (human) (UniProt Q5JVG8)
Assay: co-IP; 293T cells co-transfected with FLAG-ZNF506-KRAB, HA-SETDB1 and Myc-KAP1 plasmids, 48 h; extracts in RIPA buffer or IP buffer (20 mM Tris pH 7.5, 150 mM NaCl, 1% Triton X-100); protein A/G magnetic beads cross-linked with anti-HA, anti-FLAG or anti-Myc antibodies, 4°C overnight; washed three times with BC150 buffer; western blotting

Myc-tagged KAP1 (from UniProt Q13263 1-835)
binding: binds
